Assay results from paper PMC7613766.
These are yes or no findings as the source states them, for the method shown. Binding seen in cells or lysates may run through a third protein. Some entries that bind do so weakly or less than the wild type. Each block holds one molecule with its values, some of them ahead of it.

By UniProt entry, the sequences of proteins in these tests, tags left out.
UniProt Q99684: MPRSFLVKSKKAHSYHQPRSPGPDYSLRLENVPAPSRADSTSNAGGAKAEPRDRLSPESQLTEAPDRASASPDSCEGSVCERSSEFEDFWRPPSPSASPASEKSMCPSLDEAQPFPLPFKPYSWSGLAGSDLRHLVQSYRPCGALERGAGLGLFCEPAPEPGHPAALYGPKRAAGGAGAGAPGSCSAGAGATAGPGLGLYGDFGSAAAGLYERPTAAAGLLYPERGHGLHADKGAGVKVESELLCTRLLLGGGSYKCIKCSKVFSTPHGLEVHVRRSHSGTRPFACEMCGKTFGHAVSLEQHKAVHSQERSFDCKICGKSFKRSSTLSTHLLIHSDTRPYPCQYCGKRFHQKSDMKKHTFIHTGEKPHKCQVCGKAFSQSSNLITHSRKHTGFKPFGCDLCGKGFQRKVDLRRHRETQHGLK
UniProt Q9UKL0: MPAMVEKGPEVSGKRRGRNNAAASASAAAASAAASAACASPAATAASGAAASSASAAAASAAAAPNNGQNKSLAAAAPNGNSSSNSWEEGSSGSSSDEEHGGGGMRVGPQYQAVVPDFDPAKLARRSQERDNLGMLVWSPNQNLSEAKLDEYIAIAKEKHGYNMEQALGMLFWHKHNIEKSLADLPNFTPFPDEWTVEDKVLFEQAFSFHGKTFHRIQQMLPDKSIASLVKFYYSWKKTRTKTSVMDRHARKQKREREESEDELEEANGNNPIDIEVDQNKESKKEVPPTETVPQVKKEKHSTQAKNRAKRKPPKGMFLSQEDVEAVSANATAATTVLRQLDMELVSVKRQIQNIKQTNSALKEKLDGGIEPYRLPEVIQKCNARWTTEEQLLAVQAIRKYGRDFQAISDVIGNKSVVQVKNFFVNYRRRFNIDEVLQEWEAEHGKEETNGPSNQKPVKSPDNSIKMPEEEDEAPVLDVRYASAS

How the values were obtained:
[1] = biological target: T1, HMG20B (human (endogenous in THP1)) (UniProt Q9P0W2); assay: co-IP; nuclear immunoprecipitation in THP1 AML cells in the presence of benzonase to digest nucleic acid; western
T1 sequence: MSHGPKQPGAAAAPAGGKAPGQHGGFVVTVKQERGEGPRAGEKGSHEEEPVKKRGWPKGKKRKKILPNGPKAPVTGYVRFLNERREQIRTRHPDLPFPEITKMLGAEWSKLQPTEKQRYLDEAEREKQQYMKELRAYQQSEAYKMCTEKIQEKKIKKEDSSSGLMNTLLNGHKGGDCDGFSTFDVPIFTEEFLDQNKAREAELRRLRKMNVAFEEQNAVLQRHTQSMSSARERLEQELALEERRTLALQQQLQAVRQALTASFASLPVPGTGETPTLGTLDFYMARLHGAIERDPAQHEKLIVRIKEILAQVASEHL

[2] = biological target: T1, HMG20B (human (endogenous in THP1)); assay: co-IP; reciprocal IP-western for HMG20B and LSD1, nuclear lysates of THP1 AML cells treated with 250 nM OG86 or DMSO for 48 h
[3] = biological target: GFI1 (human (endogenous in THP1)) (UniProt Q99684); assay: co-IP; nuclear immunoprecipitation in THP1 AML cells in the presence of benzonase to digest nucleic acid; western

binding [1]: no binding
Molecule: GFI1 (from UniProt Q99684 1-422)

binding [2]: binds
Molecule: RCOR1 (from UniProt Q9UKL0 1-485)

binding [3]: no binding
B1: HMG20B (protein, UniProt Q9P0W2 1-317)
chain: MSHGPKQPGAAAAPAGGKAPGQHGGFVVTVKQERGEGPRAGEKGSHEEEPVKKRGWPKGKKRKKILPNGPKAPVTGYVRFLNERREQIRTRHPDLPFPEITKMLGAEWSKLQPTEKQRYLDEAEREKQQYMKELRAYQQSEAYKMCTEKIQEKKIKKEDSSSGLMNTLLNGHKGGDCDGFSTFDVPIFTEEFLDQNKAREAELRRLRKMNVAFEEQNAVLQRHTQSMSSARERLEQELALEERRTLALQQQLQAVRQALTASFASLPVPGTGETPTLGTLDFYMARLHGAIERDPAQHEKLIVRIKEILAQVASEHL
